What all share (assay): co-IP
Test [1] deals with T1, MST2 (endogenous, MCF10A cells) (human (endogenous in MCF10A)) (UniProt Q13188).
T1 sequence: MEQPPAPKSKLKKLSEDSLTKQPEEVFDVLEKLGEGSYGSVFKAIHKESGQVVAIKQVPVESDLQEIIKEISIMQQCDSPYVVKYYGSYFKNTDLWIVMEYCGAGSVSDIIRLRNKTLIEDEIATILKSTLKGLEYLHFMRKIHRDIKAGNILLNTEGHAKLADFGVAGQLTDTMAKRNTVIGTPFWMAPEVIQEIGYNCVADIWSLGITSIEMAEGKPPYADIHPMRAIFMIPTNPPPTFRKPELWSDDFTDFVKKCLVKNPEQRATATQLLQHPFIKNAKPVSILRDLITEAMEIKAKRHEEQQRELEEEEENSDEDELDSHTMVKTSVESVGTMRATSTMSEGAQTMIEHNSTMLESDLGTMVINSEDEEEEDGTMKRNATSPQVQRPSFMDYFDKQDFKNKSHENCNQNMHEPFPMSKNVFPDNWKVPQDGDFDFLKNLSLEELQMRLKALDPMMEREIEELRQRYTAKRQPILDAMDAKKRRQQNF

For test [2], the target named is Flag-tagged full length βTrCP.
Test [3] has as its target Flag-tagged βTrCP lacking the whole Fbox domain (βΔFbox).
Test [4] deals with βTrCP (endogenous, HEK293T cells) (human (endogenous in HEK293T)).

Results are given in words; binding and its absence hold for the method and conditions named. In cells and extracts the contact can be indirect. Binding calls can cover weak binding; strength is not graded here. For some assays here: Tags and fused reporters may be left off the sequences shown.

Regarding “βTrCP (endogenous, MCF10A cells) (human (endogenous in MCF10A))”, in test [1], the binding result is “binds”.

B1: MST2 (endogenous, HEK293T cells) (protein, UniProt Q13188-1 1-491)
chain: MEQPPAPKSKLKKLSEDSLTKQPEEVFDVLEKLGEGSYGSVFKAIHKESGQVVAIKQVPVESDLQEIIKEISIMQQCDSPYVVKYYGSYFKNTDLWIVMEYCGAGSVSDIIRLRNKTLIEDEIATILKSTLKGLEYLHFMRKIHRDIKAGNILLNTEGHAKLADFGVAGQLTDTMAKRNTVIGTPFWMAPEVIQEIGYNCVADIWSLGITSIEMAEGKPPYADIHPMRAIFMIPTNPPPTFRKPELWSDDFTDFVKKCLVKNPEQRATATQLLQHPFIKNAKPVSILRDLITEAMEIKAKRHEEQQRELEEEEENSDEDELDSHTMVKTSVESVGTMRATSTMSEGAQTMIEHNSTMLESDLGTMVINSEDEEEEDGTMKRNATSPQVQRPSFMDYFDKQDFKNKSHENCNQNMHEPFPMSKNVFPDNWKVPQDGDFDFLKNLSLEELQMRLKALDPMMEREIEELRQRYTAKRQPILDAMDAKKRRQQNF
For the molecule B1, the binding entry in test [2] and in test [3] was “binds” throughout.

B2: Flag-Flag-Strep-Strep-tagged MST2 wild type (FFSS-MST2 wt) (protein, UniProt Q13188-1 1-491)
chain: MEQPPAPKSKLKKLSEDSLTKQPEEVFDVLEKLGEGSYGSVFKAIHKESGQVVAIKQVPVESDLQEIIKEISIMQQCDSPYVVKYYGSYFKNTDLWIVMEYCGAGSVSDIIRLRNKTLIEDEIATILKSTLKGLEYLHFMRKIHRDIKAGNILLNTEGHAKLADFGVAGQLTDTMAKRNTVIGTPFWMAPEVIQEIGYNCVADIWSLGITSIEMAEGKPPYADIHPMRAIFMIPTNPPPTFRKPELWSDDFTDFVKKCLVKNPEQRATATQLLQHPFIKNAKPVSILRDLITEAMEIKAKRHEEQQRELEEEEENSDEDELDSHTMVKTSVESVGTMRATSTMSEGAQTMIEHNSTMLESDLGTMVINSEDEEEEDGTMKRNATSPQVQRPSFMDYFDKQDFKNKSHENCNQNMHEPFPMSKNVFPDNWKVPQDGDFDFLKNLSLEELQMRLKALDPMMEREIEELRQRYTAKRQPILDAMDAKKRRQQNF
For B2, in test [4], the binding entry is “binds”.

B3: FFSS-tagged MST2 with the tripeptide EDS (16-18) deleted (protein, UniProt Q13188-1 1-491)
chain: MEQPPAPKSKLKKLSLTKQPEEVFDVLEKLGEGSYGSVFKAIHKESGQVVAIKQVPVESDLQEIIKEISIMQQCDSPYVVKYYGSYFKNTDLWIVMEYCGAGSVSDIIRLRNKTLIEDEIATILKSTLKGLEYLHFMRKIHRDIKAGNILLNTEGHAKLADFGVAGQLTDTMAKRNTVIGTPFWMAPEVIQEIGYNCVADIWSLGITSIEMAEGKPPYADIHPMRAIFMIPTNPPPTFRKPELWSDDFTDFVKKCLVKNPEQRATATQLLQHPFIKNAKPVSILRDLITEAMEIKAKRHEEQQRELEEEEENSDEDELDSHTMVKTSVESVGTMRATSTMSEGAQTMIEHNSTMLESDLGTMVINSEDEEEEDGTMKRNATSPQVQRPSFMDYFDKQDFKNKSHENCNQNMHEPFPMSKNVFPDNWKVPQDGDFDFLKNLSLEELQMRLKALDPMMEREIEELRQRYTAKRQPILDAMDAKKRRQQNF
Consider B3, for which the binding result in test [4] is “binds”.

B4: FFSS-tagged MST2 with the tripeptide ESD (359-361) deleted (protein, UniProt Q13188-1 1-491)
chain: MEQPPAPKSKLKKLSEDSLTKQPEEVFDVLEKLGEGSYGSVFKAIHKESGQVVAIKQVPVESDLQEIIKEISIMQQCDSPYVVKYYGSYFKNTDLWIVMEYCGAGSVSDIIRLRNKTLIEDEIATILKSTLKGLEYLHFMRKIHRDIKAGNILLNTEGHAKLADFGVAGQLTDTMAKRNTVIGTPFWMAPEVIQEIGYNCVADIWSLGITSIEMAEGKPPYADIHPMRAIFMIPTNPPPTFRKPELWSDDFTDFVKKCLVKNPEQRATATQLLQHPFIKNAKPVSILRDLITEAMEIKAKRHEEQQRELEEEEENSDEDELDSHTMVKTSVESVGTMRATSTMSEGAQTMIEHNSTMLLGTMVINSEDEEEEDGTMKRNATSPQVQRPSFMDYFDKQDFKNKSHENCNQNMHEPFPMSKNVFPDNWKVPQDGDFDFLKNLSLEELQMRLKALDPMMEREIEELRQRYTAKRQPILDAMDAKKRRQQNF
Consider B4, for which, in test [4], the binding result is listed as “binds”.

B5: FFSS-tagged MST2 with the tripeptide EDG (375-377) deleted (MST2-delEDG) (protein, UniProt Q13188-1 1-491)
chain: MEQPPAPKSKLKKLSEDSLTKQPEEVFDVLEKLGEGSYGSVFKAIHKESGQVVAIKQVPVESDLQEIIKEISIMQQCDSPYVVKYYGSYFKNTDLWIVMEYCGAGSVSDIIRLRNKTLIEDEIATILKSTLKGLEYLHFMRKIHRDIKAGNILLNTEGHAKLADFGVAGQLTDTMAKRNTVIGTPFWMAPEVIQEIGYNCVADIWSLGITSIEMAEGKPPYADIHPMRAIFMIPTNPPPTFRKPELWSDDFTDFVKKCLVKNPEQRATATQLLQHPFIKNAKPVSILRDLITEAMEIKAKRHEEQQRELEEEEENSDEDELDSHTMVKTSVESVGTMRATSTMSEGAQTMIEHNSTMLESDLGTMVINSEDEEETMKRNATSPQVQRPSFMDYFDKQDFKNKSHENCNQNMHEPFPMSKNVFPDNWKVPQDGDFDFLKNLSLEELQMRLKALDPMMEREIEELRQRYTAKRQPILDAMDAKKRRQQNF
With B5, the binding result in test [4] is “binds weakly”.

B6: FFSS-tagged MST2 with the tripeptide ESG (48-50) deleted (protein, UniProt Q13188-1 1-491)
chain: MEQPPAPKSKLKKLSEDSLTKQPEEVFDVLEKLGEGSYGSVFKAIHKQVVAIKQVPVESDLQEIIKEISIMQQCDSPYVVKYYGSYFKNTDLWIVMEYCGAGSVSDIIRLRNKTLIEDEIATILKSTLKGLEYLHFMRKIHRDIKAGNILLNTEGHAKLADFGVAGQLTDTMAKRNTVIGTPFWMAPEVIQEIGYNCVADIWSLGITSIEMAEGKPPYADIHPMRAIFMIPTNPPPTFRKPELWSDDFTDFVKKCLVKNPEQRATATQLLQHPFIKNAKPVSILRDLITEAMEIKAKRHEEQQRELEEEEENSDEDELDSHTMVKTSVESVGTMRATSTMSEGAQTMIEHNSTMLESDLGTMVINSEDEEEEDGTMKRNATSPQVQRPSFMDYFDKQDFKNKSHENCNQNMHEPFPMSKNVFPDNWKVPQDGDFDFLKNLSLEELQMRLKALDPMMEREIEELRQRYTAKRQPILDAMDAKKRRQQNF
Consider B6, for which the binding entry in test [4] was “binds”.
